These are yes or no findings as the source states them, for the method shown. In cells and extracts the contact can be indirect. Binding can be weak; no strength is given. Sequences can lack the tags named with a protein.
Target: N2 mutant of Flag-Snm1B (Flag-Snm1B^N2) (human) (UniProt Q9H816)
Assay: co-IP; competition: 293T co-transfected with Flag-Snm1B (WT or N2), Myc-PSF2 and/or Myc-TRF2 (WT or F120A); RIPA lysate, anti-Flag immunoprecipitation, immunoblot anti-Myc; Myc-PSF2:Flag-Snm1B ratio by ImageJ

Sequences of proteins named here, by UniProt entry; tags and fusion partners are left off. A change or cut given only in a name is not applied to a line headed by its entry.
UniProt Q9H816: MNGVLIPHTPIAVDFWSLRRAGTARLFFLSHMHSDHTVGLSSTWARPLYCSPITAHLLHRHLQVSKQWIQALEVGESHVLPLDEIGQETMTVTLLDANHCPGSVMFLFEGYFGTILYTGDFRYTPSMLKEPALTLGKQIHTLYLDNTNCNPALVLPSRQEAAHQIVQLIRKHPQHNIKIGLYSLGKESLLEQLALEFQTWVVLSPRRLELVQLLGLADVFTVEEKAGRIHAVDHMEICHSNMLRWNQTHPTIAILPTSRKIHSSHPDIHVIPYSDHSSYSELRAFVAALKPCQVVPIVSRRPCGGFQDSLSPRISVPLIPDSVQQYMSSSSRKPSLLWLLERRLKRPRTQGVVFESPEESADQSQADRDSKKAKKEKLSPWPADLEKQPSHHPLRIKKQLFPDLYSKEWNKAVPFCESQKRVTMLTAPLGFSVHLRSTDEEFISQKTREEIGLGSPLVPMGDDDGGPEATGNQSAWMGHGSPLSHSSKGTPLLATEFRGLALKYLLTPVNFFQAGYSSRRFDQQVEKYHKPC

binding: binds
B1: N-terminal Myc epitope-tagged human PSF2 (Myc-PSF2) (natural protein, UniProt Q9Y248 1-185, looked up)
chain: MDAAEVEFLAEKELVTIIPNFSLDKIYLIGGDLGPFNPGLPVEVPLWLAINLKQRQKCRLLPPEWMDVEKLEKMRDHERKEETFTPMPSPYYMELTKLLLNHASDNIPKADEIRTLVKDMWDTRIAKLRVSADSFVRQQEAHAKLDNLTLMEINTSGTFLTQALNHMYKLRTNLQPLESTQSQDF
notes: PSF2, subunit of the GINS complex, human, full length; amplified from clone MGC-673 (ATCC); source: 293T, transiently transfected (pCMV-MYC), in lysate; not shown: Myc, N-terminal, kept

— article PMC3506659, “Snm1B Interacts with PSF2” (PLoS ONE, 2012)
